{"sequences": {"note": "Protein sequences, listed by entry. Tags and fused reporters are not part of them. Lines headed by an entry give the natural chain unless they say otherwise; changes in a name come on top.", "UniProt Q9UNA4": "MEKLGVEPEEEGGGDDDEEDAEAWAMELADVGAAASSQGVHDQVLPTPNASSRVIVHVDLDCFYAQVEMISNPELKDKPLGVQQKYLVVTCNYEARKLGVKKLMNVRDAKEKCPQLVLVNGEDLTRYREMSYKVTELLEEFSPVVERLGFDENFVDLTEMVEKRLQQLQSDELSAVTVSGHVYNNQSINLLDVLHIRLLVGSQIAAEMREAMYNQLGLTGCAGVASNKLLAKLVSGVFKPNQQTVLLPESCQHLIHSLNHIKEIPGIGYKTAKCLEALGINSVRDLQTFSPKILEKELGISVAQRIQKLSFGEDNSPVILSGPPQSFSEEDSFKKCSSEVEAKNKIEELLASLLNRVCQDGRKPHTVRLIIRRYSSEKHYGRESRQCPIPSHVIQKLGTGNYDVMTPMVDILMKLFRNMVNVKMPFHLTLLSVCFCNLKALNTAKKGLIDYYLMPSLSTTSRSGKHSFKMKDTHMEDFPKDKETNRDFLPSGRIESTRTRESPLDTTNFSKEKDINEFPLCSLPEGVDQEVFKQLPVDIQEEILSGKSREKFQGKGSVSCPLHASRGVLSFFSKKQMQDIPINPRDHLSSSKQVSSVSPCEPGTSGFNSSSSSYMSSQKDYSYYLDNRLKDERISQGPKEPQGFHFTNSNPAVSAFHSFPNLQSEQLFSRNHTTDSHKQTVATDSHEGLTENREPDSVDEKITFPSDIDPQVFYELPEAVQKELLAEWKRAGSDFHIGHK"}, "source": "PubChem BioAssay AID588590", "about": "(National Center for Advancing Translational Sciences (NCATS), 2011)", "note": "About 4,000 (1%) of roughly 390,000 compounds were called active. Inconclusive results, whose numbers are uncertain, are shown with a selection of clear calls. Calls come from the whole dose curve; as a rule, active = well fitted inhibition curve with a large enough effect; inconclusive = small, poorly fitted or top-dose-only effect, or another doubt; inactive = no such curve, though single readings can be large or run the other way. Where the call is inconclusive, the potency comes from a doubtful curve fit. Potency is the fitted concentration of half-maximal effect."}
{"molecular_target": "DNA polymerase iota (Homo sapiens) (UniProt Q9UNA4)", "assay": "qHTS for Inhibitors of Polymerase Iota", "details": "Pol iota fluorescent replication assay, 10 min; series mostly up to 115 µM", "summary_of_the_method": "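Pol iota at 10 nM preincubated 15 min with compounds at room temperature; reaction started with fluorescent substrate, 50 nM final. Fluorescence read kinetically at 0 and 10 min; buffer-only wells as negative control.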"}
{"smiles": "COc1ccc(NC(=O)CN2CCN(CC(=O)Nc3ccccc3Cl)CC2)c(OC)c1", "Potency": "inconclusive: 112 µM [inhibitor, single point]"}
{"smiles": "O=S(=O)(Cc1ccccc1)N(O)c1ccccc1", "Potency": "inactive"}
{"smiles": "CCOc1cc(/C=C2\\C(=O)ON=C2c2ccccc2)cc(Br)c1O", "Potency": "inconclusive: 35.5 µM [inhibitor, partial curve, poor fit]"}
{"smiles": "Cc1ccc(Nc2ccc(C(=O)N3CCCC3)cn2)c(C)c1", "Potency": "inconclusive: 3.16 µM [inhibitor, single point]"}
{"smiles": "Cc1ccc(C)c(NC(=O)CCc2c(C)n(C)c3cc(-c4ccccc4C)nn3c2=O)c1", "Potency": "inactive"}
{"smiles": "CCN1CCCC1CNCc1ccc(Cl)cc1Cl", "note": "(stereo not drawn)", "Potency": "inconclusive: 44.7 µM [inhibitor, partial curve, poor fit]"}
{"smiles": "O=C(CSCc1cnn(-c2ccccc2)c1-n1cccc1)NCc1ccccc1F", "Potency": "inactive"}
{"smiles": "N#C/C(=C\\c1ccc(-c2ccc(C(=O)O)cc2)o1)C(=O)NCC1CCCO1", "note": "(stereo not drawn)", "Potency": "inconclusive: 50.1 µM [inhibitor, partial curve]"}
{"smiles": "CCOC(=O)c1c(NC(=O)C(F)(OC)C(F)(F)F)sc(C(=O)N2CCCCC2)c1C", "note": "(stereo not drawn)", "Potency": "inconclusive: 31.6 µM [inhibitor, single point]"}
{"smiles": "Cc1ccc2c(c1)C1CN(C)CCC1N2S(=O)(=O)c1ccc(C(C)C)cc1", "note": "(stereo not drawn)", "Potency": "inactive"}
{"smiles": "CC1(OC(=O)C2CCCC2)C(=O)C=C2C=C(c3ccsc3)N(C3CC3)C=C2C1=O", "note": "(stereo not drawn)", "Potency": "inconclusive: 11.2 µM [inhibitor, partial curve, poor fit]"}
{"smiles": "CN(C)CCCO[C@@H]1[C@H]2OC(C)(C)O[C@H]2O[C@@H]1[C@H](O)CO", "Potency": "inconclusive: 39.8 µM [inhibitor, single point]"}
{"smiles": "C/C(=N\\Nc1nc2c(s1)CCCC2)c1ccccc1", "Potency": "inconclusive: 3.55 µM [inhibitor, full curve, poor fit]"}
{"smiles": "O=C(O)C1CCCCC1C(=O)Nc1cccc(C(=O)N2CCCCC2)c1", "note": "(stereo not drawn)", "Potency": "inconclusive: 89.1 µM [inhibitor, partial curve, poor fit]"}
{"smiles": "CNC(=O)c1ccsc1NC(=O)c1ccccc1", "Potency": "inconclusive: 14.1 µM [inhibitor, partial curve, poor fit]"}
{"smiles": "O=C(CCCc1nc(-c2ccco2)no1)Nc1ccccc1[N+](=O)[O-]", "Potency": "inconclusive: 79.4 µM [inhibitor, partial curve, poor fit]"}
{"smiles": "COc1cc(/C=N/NC(=O)c2sc(N)c(C#N)c2C)cc(Br)c1O", "Potency": "inconclusive: 39.8 µM [inhibitor, single point]"}
{"smiles": "CCOC(=O)c1cnn(-c2ccccc2)c1-c1ccncc1", "Potency": "inactive"}
